Test results taken from PMC10197891.
Results are given in words; binding and its absence hold for the method and conditions named. Binding seen in cells or lysates may run through a third protein. Some binding calls cover weakened binding; strength is not graded here.

Molecular target: T1, activating transcription factor 2 (ATF2) (human (endogenous in Hep 3B, Hep 3B/DR, SK-Hep 1)), P15336
T1 chain: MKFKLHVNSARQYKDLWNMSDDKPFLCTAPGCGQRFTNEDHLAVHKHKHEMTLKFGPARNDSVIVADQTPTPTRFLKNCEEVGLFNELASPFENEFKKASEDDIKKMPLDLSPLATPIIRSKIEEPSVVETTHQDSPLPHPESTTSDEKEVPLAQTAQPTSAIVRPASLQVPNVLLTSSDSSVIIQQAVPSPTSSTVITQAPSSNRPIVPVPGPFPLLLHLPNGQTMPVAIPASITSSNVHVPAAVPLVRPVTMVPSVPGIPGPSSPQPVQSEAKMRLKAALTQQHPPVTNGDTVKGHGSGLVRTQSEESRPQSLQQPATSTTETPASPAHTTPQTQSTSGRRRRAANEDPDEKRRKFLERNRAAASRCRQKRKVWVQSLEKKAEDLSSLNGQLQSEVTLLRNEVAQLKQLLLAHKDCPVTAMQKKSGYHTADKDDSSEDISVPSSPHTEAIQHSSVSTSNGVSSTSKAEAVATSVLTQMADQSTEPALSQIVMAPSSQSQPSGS
Assay: co-IP; endogenous proteins; RIPA lysates of Hep 3B, SK-Hep 1 (with or without 20 uM CDDP for 18 h) and Hep 3B/DR cells; 600 ug protein with primary antibody or IgG overnight at 4°C, Dynabeads Protein A 1 h at room temperature, five washes with RIPA, western blot
Details: remark: other sources report otherwise

binding: binds
B1: c-Jun, P05412 1-331 (protein)
chain: MTAKMETTFYDDALNASFLPSESGPYGYSNPKILKQSMTLNLADPVGSLKPHLRAKNSDLLTSPDVGLLKLASPELERLIIQSSNGHITTTPTPTQFLCPKNVTDEQEGFAEGFVRALAELHSQNTLPSVTSAAQPVNGAGMVAPAVASVAGGSGSGGFSASLHSEPPVYANLSNFNPGALSSGGGAPSYGAAGLAFPAQPQQQQQPPHHLPQQMPVQHPRLQALKEEPQTVPEMPGETPPLSPIDMESQERIKAERKRMRNRIAASKCRKRKLERIARLEEKVKTLKAQNSELASTANMLREQVAQLKQKVMNHVNSGCQLMLTQQLQTF
